Measured values from publication PMC5314175.
Residue numbers refer to the chain shown, from its start. Names and notes keep the numbering of the source. These are yes or no findings as the source states them, for the method shown. For some of these results: In cells and extracts the contact can be indirect. Some results given as binding are weak or reduced against the parent protein; the word gives no strength. For some of these results: Sequences can lack the tags named with a protein.

Chains of the proteins cited; added tags and fusions are not shown.
UniProt Q9UQ84: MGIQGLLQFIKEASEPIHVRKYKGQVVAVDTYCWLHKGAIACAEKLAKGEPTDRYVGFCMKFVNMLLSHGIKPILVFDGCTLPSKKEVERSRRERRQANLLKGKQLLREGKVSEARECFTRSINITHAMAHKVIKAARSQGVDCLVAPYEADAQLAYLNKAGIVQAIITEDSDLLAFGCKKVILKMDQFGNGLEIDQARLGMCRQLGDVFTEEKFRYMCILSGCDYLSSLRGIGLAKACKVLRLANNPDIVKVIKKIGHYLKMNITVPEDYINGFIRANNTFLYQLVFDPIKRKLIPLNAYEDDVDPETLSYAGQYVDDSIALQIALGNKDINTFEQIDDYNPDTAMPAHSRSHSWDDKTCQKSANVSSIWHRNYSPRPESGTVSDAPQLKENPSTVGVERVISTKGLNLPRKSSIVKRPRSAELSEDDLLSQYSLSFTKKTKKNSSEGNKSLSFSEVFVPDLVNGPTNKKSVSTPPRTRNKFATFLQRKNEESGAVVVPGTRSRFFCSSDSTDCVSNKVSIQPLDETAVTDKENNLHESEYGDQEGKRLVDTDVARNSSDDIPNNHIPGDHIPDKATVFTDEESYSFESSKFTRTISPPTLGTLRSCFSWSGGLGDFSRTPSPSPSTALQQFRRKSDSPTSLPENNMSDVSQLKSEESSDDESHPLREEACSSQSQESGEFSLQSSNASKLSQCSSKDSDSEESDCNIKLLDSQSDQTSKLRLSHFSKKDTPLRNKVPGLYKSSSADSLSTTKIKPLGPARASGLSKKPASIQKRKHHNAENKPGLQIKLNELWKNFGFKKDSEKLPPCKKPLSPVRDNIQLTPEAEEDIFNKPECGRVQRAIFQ

What was measured:
[1] = biological target: T1, FLAG-tagged EEPD1, full-length (WT) (UniProt Q7L9B9); test: co-IP; full-length and truncated FLAG-tagged EEPD1 expressed in HEK-293 cells, immunoprecipitated with FLAG antibody, blot probed for Exo1; from 300 ug of total cell lysate
T1 sequence: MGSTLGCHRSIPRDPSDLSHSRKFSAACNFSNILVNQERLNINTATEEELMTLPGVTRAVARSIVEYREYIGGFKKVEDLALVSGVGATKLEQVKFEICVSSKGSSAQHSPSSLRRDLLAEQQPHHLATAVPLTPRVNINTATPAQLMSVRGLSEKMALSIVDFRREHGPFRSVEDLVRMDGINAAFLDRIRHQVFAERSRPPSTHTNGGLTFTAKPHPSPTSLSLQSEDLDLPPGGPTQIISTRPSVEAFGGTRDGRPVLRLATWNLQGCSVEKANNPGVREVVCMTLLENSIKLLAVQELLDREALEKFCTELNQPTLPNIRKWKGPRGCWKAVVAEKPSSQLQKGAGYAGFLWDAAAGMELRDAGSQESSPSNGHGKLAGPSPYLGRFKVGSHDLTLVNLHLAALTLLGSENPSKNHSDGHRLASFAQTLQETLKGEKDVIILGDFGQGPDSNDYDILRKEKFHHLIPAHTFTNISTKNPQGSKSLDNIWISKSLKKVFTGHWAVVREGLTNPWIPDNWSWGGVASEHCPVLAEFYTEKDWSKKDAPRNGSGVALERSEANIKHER

[2] = biological target: V5-tagged Exo1, full-length (WT) (UniProt Q9UQ84); test: co-IP; full-length and truncated V5-tagged Exo1 expressed in HEK-293 cells, immunoprecipitated with V5 antibody, blot probed for EEPD1; from 300 ug of total cell lysate
[3] = biological target: V5-tagged Exo1, full-length (WT) (UniProt Q9UQ84); test: co-IP; in vitro: recombinant FLAG-tagged EEPD1 and V5-tagged Exo1, 200 ng of each, incubated together for 30 min in the buffer without Triton X-100; both purified
[4] = biological target: V5-tagged Exo1, full-length (WT) (UniProt Q9UQ84); test: co-IP; EEPD1/D181A and Exo1; initial immunoprecipitation as for panel B (300 ug of total cell lysate)

With “native Exo1 (endogenous, HEK-293) (from UniProt Q9UQ84 1-846) (enzyme)” the binding [1] was “binds”.

B1: native EEPD1 (endogenous, HEK-293) (enzyme, UniProt Q7L9B9 1-569)
chain: T1 sequence
With B1 the binding [2] was “binds”.

B2: FLAG-tagged EEPD1, full-length (WT) (enzyme, UniProt Q7L9B9 1-569)
chain: T1 sequence
B2 was tested, and the binding [3] was “binds”.

B3: FLAG-tagged EEPD1 D181A (enzyme, UniProt Q7L9B9 1-569)
chain: T1 sequence with D181A
B3 was tested, and the binding [4] was “binds”.
